From the supplement of paper PMC4604168 (melanoma cell lines)
This is one part of the list. Repeats are few or missing, and single values can be far off.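 Cells were imaged in 1,536-well plates, and nuclei stained with an antibody against cleaved PARP were counted against all DNA-stained nuclei to give the apoptosis fraction. Screening doses were chosen to leave most cells alive, and resting and induced cleaved-PARP levels differ strongly between cell lines.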

Assays:
Assay in all cases: cleaved PARP positive nuclei fraction relative to DMSO control; melanoma cells; higher = more apoptosis
Conditions in all cases: library dose: low library concentration; 72 h
CBRC034 = system: CBRC034 (line from a melanoma biopsy)
COLO792 = system: COLO792
COLO800 = system: COLO800
COLO829 = system: COLO829
G361 = system: G361
IPC-298 = system: IPC-298
IST-MEL1 = system: IST-MEL1
LB2518-MEL = system: LB2518-MEL
LOXIMVI = system: LOXIMVI
MZ2-MEL = system: MZ2-MEL
MeWo = system: MeWo
RPMI7951 = system: RPMI7951
RVH-421 = system: RVH-421
SkMel28 = system: SkMel28
SkMel30 = system: SkMel30
SkMel5 = system: SkMel5
UACC257 = system: UACC257
UACC62 = system: UACC62

SMILES | cleaved PARP positive nuclei fraction (CBRC034) [%] | cleaved PARP positive nuclei fraction (COLO792) [%] | cleaved PARP positive nuclei fraction (COLO800) [%] | cleaved PARP positive nuclei fraction (COLO829) [%] | cleaved PARP positive nuclei fraction (G361) [%] | cleaved PARP positive nuclei fraction (IPC-298) [%] | cleaved PARP positive nuclei fraction (IST-MEL1) [%] | cleaved PARP positive nuclei fraction (LB2518-MEL) [%] | cleaved PARP positive nuclei fraction (LOXIMVI) [%] | cleaved PARP positive nuclei fraction (MZ2-MEL) [%] | cleaved PARP positive nuclei fraction (MeWo) [%] | cleaved PARP positive nuclei fraction (RPMI7951) [%] | cleaved PARP positive nuclei fraction (RVH-421) [%] | cleaved PARP positive nuclei fraction (SkMel28) [%] | cleaved PARP positive nuclei fraction (SkMel30) [%] | cleaved PARP positive nuclei fraction (SkMel5) [%] | cleaved PARP positive nuclei fraction (UACC257) [%] | cleaved PARP positive nuclei fraction (UACC62) [%]
O=C(Nc1cccc(Cl)c1)Nc1ncc(CCNc2ncnc3ccsc23)s1 + O=C1NC(=O)/C(=C/c2ccc(-c3ccc(F)cc3O)o2)S1 [AS252424] (first compound 0.0008 µM, partner dose 1 µM) | 57.3 | 15.9 | 105 | 83 | 83.5 | 167 | 41.7 | 103 | 33.3 | 99.7 | 156 | 323 | 79.1 | 125 | 18.9 | 53 | 186 | 76.5
CC1(C)NC(=O)N(c2ccc([N+](=O)[O-])c(C(F)(F)F)c2)C1=O [nilutamide] + CCN(CC)CCCCNc1ncc2cc(-c3cc(OC)cc(OC)c3)c(NC(=O)NC(C)(C)C)nc2n1 [PD173074] (first compound 1 µM, partner dose 0.1 µM) | 122 | 40.5 | 87.2 | 75.6 | 96.7 | 81.2 | 26.4 | 77 | 69.6 | 109 | 48.1 | 37.8 | 69.2 | 97.3 | 122 | 52.4 | 19.9 | 86.9
C[C@@H]1CCN(C(=O)CC#N)C[C@@H]1N(C)c1ncnc2[nH]ccc12 + CCN(CC)CCCCNc1ncc2cc(-c3cc(OC)cc(OC)c3)c(NC(=O)NC(C)(C)C)nc2n1 [PD173074] (first compound 1 µM, partner dose 0.1 µM) | 59.3 | 213 | 60.2 | 66.1 | 94.5 | 81.8 | 57.8 | 82.6 | 67.7 | 20.9 | 47.8 | 89.3 | 79.3 | 159 | 108 | 48.8 | 149 | 31
C[C@]1(c2nc3c(C(N)=O)cccc3[nH]2)CCCN1 [Veliparib] + CCCCCCCCCCCC1=C(O)C(=O)C=C(O)C1=O [Embelin] (first compound 1.4 µM, partner dose 1.2 µM) | 42.1 | 56.3 | 30.9 | 25.7 | 74.5 | 62.9 | 92.4 | 88.6 | 35.8 | 91.9 | 94.7 | 43 | 78.6 | 144 | 19.1 | 41.9 | 95.2 | 48.2
Nc1cccc2c1CN(C1CCC(=O)NC1=O)C2=O (configuration not stated) [lenalidomide] + c1cc(-c2cnn3cc(-c4ccc(OCCN5CCCCC5)cc4)cnc23)ccn1 [Dorsomorphin] (first compound 1 µM, partner dose 0.4 µM) | 89.1 | 165 | 56.6 | 73.3 | 393 | 80.5 | 138 | 87.2 | 57.9 | 36.4 | 151 | 77.8 | 48.3 | 95.4 | 39.9 | 59.7 | 146 | 180
COc1cc(Nc2ncc(F)c(Nc3ccc4c(n3)NC(=O)C(C)(C)O4)n2)cc(OC)c1OC [Tamatinib] + N#Cc1c(O)c2c(-c3ccc(-c4ccccc4O)cc3)csc2[nH]c1=O [A769662] (first compound 0.4 µM, partner dose 2 µM) | 98.2 | 239 | 126 | 62.2 | 71.5 | 52.4 | 121 | 188 | 137 | 124 | 237 | 84.1 | 97.9 | 182 | 20.9 | 38.6 | 146 | 88.5
CC1(C)NC(=O)N(c2ccc([N+](=O)[O-])c(C(F)(F)F)c2)C1=O [nilutamide] + Oc1cc(-c2nc(-c3ccccc3)[nH]c2-c2ccncc2)ccc1Cl [L779450] (first compound 1 µM, partner dose 0.2 µM) | 73.3 | 114 | 147 | 151 | 109 | 142 | 60 | 105 | 58.8 | 184 | 54.7 | 91.9 | 84 | 112 | 37.4 | 61.8 | 21 | 145
CO[C@@H]1[C@H](N(C)C(=O)c2ccccc2)C[C@H]2O[C@]1(C)n1c3ccccc3c3c4c(c5c6ccccc6n2c5c31)C(=O)NC4 [Midostaurin] + O=C(Nc1ccccc1)c1cc([N+](=O)[O-])ccc1Cl [GW9662] (first compound 0.08 µM, partner dose 2 µM) | 88.5 | 76.8 | 63 | 54.9 | 114 | 68 | 83.3 | 132 | 72.5 | 239 | 28.2 | 38.3 | 108 | 92.3 | 18.7 | 79.4 | 117 | 40.5
Nc1cccc2c1CN(C1CCC(=O)NC1=O)C2=O (configuration not stated) [lenalidomide] + N#Cc1c(O)c2c(-c3ccc(-c4ccccc4O)cc3)csc2[nH]c1=O [A769662] (first compound 1 µM, partner dose 2 µM) | 89.8 | 179 | 157 | 121 | 44.2 | 42.8 | 47.4 | 83.6 | 69.1 | 67.3 | 214 | 164 | 37.3 | 210 | 47 | 59.9 | 59 | 206
O=C(CCCCCCC(=O)Nc1ccccc1)NO [vorinostat] + CC(C)CCN1c2nc(Nc3cc(F)c(O)c(F)c3)ncc2N(C)C(=O)C1C [BID1870] (first compound 0.08 µM, partner dose 0.2 µM) | 75.1 | 116 | 50 | 48.5 | 186 | 82.5 | 33.5 | 90.7 | 133 | 147 | 64 | 80.5 | 42.3 | 152 | 41.4 | 68.7 | 103 | 130
C#Cc1cccc(Nc2ncnc3cc(OCCOC)c(OCCOC)cc23)c1 [erlotinib] + COc1ccc(-c2ccc3c(N4CCOCC4)nc(N4C[C@@H](C)O[C@@H](C)C4)nc3n2)cc1CO [KU0063794] (first compound 0.8 µM, partner dose 0.02 µM) | 46 | 148 | 174 | 85.9 | 186 | 158 | 189 | 86.8 | 71.1 | 53.1 | 131 | 42.7 | 156 | 201 | 139 | 29.8 | 265 | 89.9
Cc1ccc(NC(=O)c2cccc(N(C)C)c2)cc1NC(=O)c1ccc(O)cc1 + COc1ccc2c(c1)CCC1C2CCC2(C)C(NCCCCCCN3C(=O)C=CC3=O)CCC12 [U73122] (first compound 2 µM, partner dose 0.4 µM) | 52.3 | 32.4 | 141 | 120 | 158 | 248 | 35.4 | 89.8 | 108 | 103 | 51.6 | 101 | 54.3 | 120 | 93.2 | 122 | 127 | 49.1
C[C@@H]1CCN(C(=O)CC#N)C[C@@H]1N(C)c1ncnc2[nH]ccc12 + O=S(=O)(c1ccccc1)N(CC(F)(F)F)c1ccc(C(O)(C(F)(F)F)C(F)(F)F)cc1 [T0901317] (first compound 1 µM, partner dose 1.4 µM) | 65.7 | 92.3 | 141 | 275 | 44.5 | 66.9 | 84.8 | 87.6 | 34.8 | 58.7 | 29.3 | 81 | 88.1 | 128 | 28.9 | 32.5 | 88.6 | 79.8
OCCn1cc(-c2cnc3nnn(Cc4ccc5ncccc5c4)c3n2)cn1 + O=S(=O)(c1ccccc1)N(CC(F)(F)F)c1ccc(C(O)(C(F)(F)F)C(F)(F)F)cc1 [T0901317] (first compound 1 µM, partner dose 1.4 µM) | 47 | 86.7 | 104 | 155 | 32.7 | 58.4 | 55.1 | 95.3 | 19.7 | 149 | 56.8 | 76.8 | 43.4 | 120 | 237 | 63.6 | 201 | 42.2
Cn1c(Nc2ccc(C(F)(F)F)cc2)nc2cc(Oc3ccnc(-c4ncc(C(F)(F)F)[nH]4)c3)ccc21 + COC(=O)c1sccc1S(=O)(=O)Nc1ccc(Nc2ccccc2)cc1OC [GSK0660] (first compound 0.08 µM, partner dose 1 µM) | 53.4 | 255 | 96.8 | 108 | 171 | 90.4 | 201 | 212 | 84.5 | 96.8 | 204 | 108 | 217 | 282 | 159 | 159 | 1350 | 303
Cc1nc(Nc2ncc(C(=O)Nc3c(C)cccc3Cl)s2)cc(N2CCN(CCO)CC2)n1 [dasatanib] + Oc1cc(-c2nc(-c3ccccc3)[nH]c2-c2ccncc2)ccc1Cl [L779450] (first compound 0.004 µM, partner dose 0.2 µM) | 106 | 73.8 | 132 | 39.2 | 110 | 98.5 | 158 | 115 | 48.4 | 98.9 | 26.6 | 52.6 | 73.9 | 179 | 42.9 | 63.4 | 187 | 109
OCCn1cc(-c2cnc3nnn(Cc4ccc5ncccc5c4)c3n2)cn1 + O=C1NC(=O)/C(=C/c2ccc(-c3ccc(F)cc3O)o2)S1 [AS252424] (first compound 1 µM, partner dose 1 µM) | 73.6 | 94.6 | 77.9 | 81.7 | 63.1 | 77.3 | 57.7 | 90.7 | 79.1 | 156 | 56.8 | 143 | 87.5 | 106 | 46.5 | 155 | 62 | 129
Cn1cncc1[C@@](N)(c1ccc(Cl)cc1)c1ccc2c(c1)c(-c1cccc(Cl)c1)cc(=O)n2C [tipifarnib] + COC(=O)c1sccc1S(=O)(=O)Nc1ccc(Nc2ccccc2)cc1OC [GSK0660] (first compound 0.01 µM, partner dose 1 µM) | 185 | 98.4 | 94.6 | 63.6 | 89.2 | 164 | 85.3 | 50.4 | 47.5 | 176 | 111 | 111 | 41.7 | 126 | 123 | 95.5 | 136 | 71.8
CC1(C)NC(=O)N(c2ccc([N+](=O)[O-])c(C(F)(F)F)c2)C1=O [nilutamide] + CCCCCCCCCCCC1=C(O)C(=O)C=C(O)C1=O [Embelin] (first compound 1 µM, partner dose 1.2 µM) | 101 | 81.2 | 113 | 59.6 | 115 | 42 | 42.6 | 84.1 | 79.4 | 68.6 | 66.7 | 80.8 | 75.1 | 46 | 91.7 | 100 | 71.9 | 65.3

A second format for part of the listing above.
SMILES	cleaved PARP positive nuclei fraction (CBRC034) [%]	cleaved PARP positive nuclei fraction (COLO792) [%]	cleaved PARP positive nuclei fraction (COLO800) [%]	cleaved PARP positive nuclei fraction (COLO829) [%]	cleaved PARP positive nuclei fraction (G361) [%]	cleaved PARP positive nuclei fraction (IPC-298) [%]	cleaved PARP positive nuclei fraction (IST-MEL1) [%]	cleaved PARP positive nuclei fraction (LB2518-MEL) [%]	cleaved PARP positive nuclei fraction (LOXIMVI) [%]	cleaved PARP positive nuclei fraction (MZ2-MEL) [%]	cleaved PARP positive nuclei fraction (MeWo) [%]	cleaved PARP positive nuclei fraction (RPMI7951) [%]	cleaved PARP positive nuclei fraction (RVH-421) [%]	cleaved PARP positive nuclei fraction (SkMel28) [%]	cleaved PARP positive nuclei fraction (SkMel30) [%]	cleaved PARP positive nuclei fraction (SkMel5) [%]	cleaved PARP positive nuclei fraction (UACC257) [%]	cleaved PARP positive nuclei fraction (UACC62) [%]
C[C@@H]1CCN(C(=O)CC#N)C[C@@H]1N(C)c1ncnc2[nH]ccc12 + O=S(=O)(c1ccccc1)N(CC(F)(F)F)c1ccc(C(O)(C(F)(F)F)C(F)(F)F)cc1 [T0901317] (first compound 1 µM, partner dose 1.4 µM)	65.7	92.3	141	275	44.5	66.9	84.8	87.6	34.8	58.7	29.3	81	88.1	128	28.9	32.5	88.6	79.8
OCCn1cc(-c2cnc3nnn(Cc4ccc5ncccc5c4)c3n2)cn1 + O=S(=O)(c1ccccc1)N(CC(F)(F)F)c1ccc(C(O)(C(F)(F)F)C(F)(F)F)cc1 [T0901317] (first compound 1 µM, partner dose 1.4 µM)	47	86.7	104	155	32.7	58.4	55.1	95.3	19.7	149	56.8	76.8	43.4	120	237	63.6	201	42.2
